In US12527768B2, “Compositions comprising an anti-inflammatory drug and a dicer activator for use in the treatment of neuronal diseases” (NeuroSense Therapeutics Ltd., priority 2017, dated 2026):
Entries after “also recorded” stand apart in the source; their conditions may differ.

System: SOD1 G93R mutant zebrafish larvae
Assay: Toxicity analysis of larvae (morphology, cardiovascular system, behavior, mortality)
Assay type: in vivo, zebrafish (Danio rerio)
Details: Ciprofloxacin 1-500 μM
Description: Treatment protocol SOD1 G93R mutant or WT fish were collected and raised according to accepted and approved protocols, see Westerfield M. The Zebrafish Book: a Guide for the Laboratory Use of Zebrafish (Danio rerio) 2000, incorporated herein as reference. Larvae's morphology was observed (heart rate, overall morphology and behavior) at each day.
Toxicity analysis Fish were observed during the day of administration and the following days to observe toxicity. Acute toxicity was evaluated for apoptosis/necrosis and cardiovascular system abnormalities (heart rate, morphology, hemorrhage and edema). Head, eyes and overall morphological and behavioral toxicity were recorded according to accepted procedures^28.

O=C(O)c1cn(C2CC2)c2cc(N3CCNCC3)c(F)cc2c1=O [Ciprofloxacin]
toxicity (morphology, behavior, mortality): no overall or subtle morphological and behavioral toxicity; also recorded: no drug induced effects in morphology or mortality were observed | toxicity (morphology, behavior, mortality) (listed as ciprofloxacin): not toxic
